# Measured values reported in patent publication US20140038203A1, “METHODS FOR DETECTING OR PREDICTING KIDNEY DISEASE” (MUSC FOUNDATION FOR RESEARCH DEVELOPMENT, priority 2012, published 2014).
# B1: Prostaglandin-H2 D-isomerase (protein, UniProt P41222 23-190, looked up)
# Prostaglandin-H2 D-isomerase: APEAQVSVQPNFQQDKFLGRWFSAGLASNSSWLREKKAALSMCKSVVAPATDGGLNLTSTFLRKNQCETRTMLLQPAGSLGSYSYRSPHWGSTYSVSVVETDYDQYALLYSQGSKGPGEDFRMATLYSRTQTPRAELKEKFTAFCKAQGFTEDTIVFLPQTDKCMTEQ
# B2: Cystatin-M (protein, UniProt Q15828 29-149, looked up)
# Cystatin-M: RPQERMVGELRDLSPDDPQVQKAAQAAVASYNMGSNSIYYFRDTHIIKAQSQLVAGIKYFLTMEMGSTDCRKTRVTGDHVDLTTCPLAAGAQQEKLRCDFEVLVVPWQNSSQLLKHNCVQM
# B3: Poliovirus receptor-related protein 2 (protein, UniProt Q92692 32-538, looked up)
# Nectin-2: QDVRVQVLPEVRGQLGGTVELPCHLLPPVPGLYISLVTWQRPDAPANHQNVAAFHPKMGPSFPSPKPGSERLSFVSAKQSTGQDTEAELQDATLALHGLTVEDEGNYTCEFATFPKGSVRGMTWLRVIAKPKNQAEAQKVTFSQDPTTVALCISKEGRPPARISWLSSLDWEAKETQVSGTLAGTVTVTSRFTLVPSGRADGVTVTCKVEHESFEEPALIPVTLSVRYPPEVSISGYDDNWYLGRTDATLSCDVRSNPEPTGYDWSTTSGTFPTSAVAQGSQLVIHAVDSLFNTTFVCTVTNAVGMGRAEQVIFVRETPNTAGAGATGGIIGGIIAAIIATAVAATGILICRQQRKEQTLQGAEEDEDLEGPPSYKPPTPKAKLEAQEMPSQLFTLGASEHSPLKTPYFDAGASCTEQEMPRYHELPTLEERSGPLHPGATSLGSPIPVPPGPPAVEDVSLDLEDEEGEEEEEYLDKINPIYDALSYSSPSDSYQGKGFVMSRAMYV
# B4: Glutamyl aminopeptidase (protein, UniProt Q07075 1-957, looked up)
# Glutamyl aminopeptidase: MNFAEREGSKRYCIQTKHVAILCAVVVGVGLIVGLAVGLTRSCDSSGDGGPGTAPAPSHLPSSTASPSGPPAQDQDICPASEDESGQWKNFRLPDFVNPVHYDLHVKPLLEEDTYTGTVSISINLSAPTRYLWLHLRETRITRLPELKRPSGDQVQVRRCFEYKKQEYVVVEAEEELTPSSGDGLYLLTMEFAGWLNGSLVGFYRTTYTENGQVKSIVATDHEPTDARKSFPCFDEPNKKATYTISITHPKEYGALSNMPVAKEESVDDKWTRTTFEKSVPMSTYLVCFAVHQFDSVKRISNSGKPLTIYVQPEQKHTAEYAANITKSVFDYFEEYFAMNYSLPKLDKIAIPDFGTGAMENWGLITYRETNLLYDPKESASSNQQRVATVVAHELVHQWFGNIVTMDWWEDLWLNEGFASFFEFLGVNHAETDWQMRDQMLLEDVLPVQEDDSLMSSHPIIVTVTTPDEITSVFDGISYSKGSSILRMLEDWIKPENFQKGCQMYLEKYQFKNAKTSDFWAALEEASRLPVKEVMDTWTRQMGYPVLNVNGVKNITQKRFLLDPRANPSQPPSDLGYTWNIPVKWTEDNITSSVLFNRSEKEGITLNSSNPSGNAFLKINPDHIGFYRVNYEVATWDSIATALSLNHKTFSSADRASLIDDAFALARAQLLDYKVALNLTKYLKREENFLPWQRVISAVTYIISMFEDDKELYPMIEEYFQGQVKPIADSLGWNDAGDHVTKLLRSSVLGFACKMGDREALNNASSLFEQWLNGTVSLPVNLRLLVYRYGMQNSGNEISWNYTLEQYQKTSLAQEKEKLLYGLASVKNVTLLSRYLDLLKDTNLIKTQDVFTVIRYISYNSYGKNMAWNWIQLNWDYLVNRYTLNNRNLGRIVTIAEPFNTELQLWQMESFFAKYPQAGAGEKPREQVLETVKNNIEWLKQHRNTIREWFFNLLESG
# B5: Na(+)/H(+) exchange regulatory cofactor NHE-RF1 (protein, UniProt O14745 2-358, looked up)
# Na(+)/H(+) exchange …: SADAAAGAPLPRLCCLEKGPNGYGFHLHGEKGKLGQYIRLVEPGSPAEKAGLLAGDRLVEVNGENVEKETHQQVVSRIRAALNAVRLLVVDPETDEQLQKLGVQVREELLRAQEAPGQAEPPAAAEVQGAGNENEPREADKSHPEQRELRPRLCTMKKGPSGYGFNLHSDKSKPGQFIRSVDPDSPAEASGLRAQDRIVEVNGVCMEGKQHGDVVSAIRAGGDETKLLVVDRETDEFFKKCRVIPSQEHLNGPLPVPFTNGEIQKENSREALAEAALESPRPALVRSASSDTSEELNSQDSPPKQDSTAPSSTSSSDPILDFNISLAMAKERAHQKRSSKRAPQMDWSKKNELFSNL
# B6: Lymphocyte antigen 6D (protein, UniProt Q14210 21-98, looked up)
# Lymphocyte antigen 6D: LRCHVCTSSSNCKHSVVCPASSRFCKTTNTVEPLRGNLVKKDCAESCTPSYTLQGQVSSGTSSTQCCQEDLCNEKLHN
# B7: Extracellular superoxide dismutase [Cu—Zn] (protein, UniProt P08294 19-240, looked up)
# Extracellular superoxide …: WTGEDSAEPNSDSAEWIRDMYAKVTEIWQEVMQRRDDDGALHAACQVQPSATLDAAQPRVTGVVLFRQLAPRAKLDAFFALEGFPTEPNSSSRAIHVHQFGDLSQGCESTGPHYNPLAVPHPQHPGDFGNFAVRDGSLWRYRAGLAASLAGPHSIVGRAVVVHAGEDDLGRGGNQASVENGNAGRRLACCVVGVCGPGLWERQAREHSERKKRRRESECKAA
# B8: Bone marrow proteoglycan (protein, UniProt P13727 17-222, looked up)
# Bone marrow proteoglycan: LHLRSETSTFETPLGAKTLPEDEETPEQEMEETPCRELEEEEEWGSGSEDASKKDGAVESISVPDMVDKNLTCPEEEDTVKVVGIPGCQTCRYLLVRSLQTFSQAWFTCRRCYRGNLVSIHNFNINYRIQCSVSALNQGQVWIGGRITGSGRCRRFQWVDGSRWNFAYWAAHQPWSRGGHCVALCTRGGHWRRAHCLRRLPFICSY
# B9: Insulin-like growth factor-binding protein 1 (protein, UniProt P08833 26-259, looked up)
# Insulin-like growth …: APWQCAPCSAEKLALCPPVSASCSEVTRSAGCGCCPMCALPLGAACGVATARCARGLSCRALPGEQQPLHALTRGQGACVQESDASAPHAAEAGSPESPESTEITEEELLDNFHLMAPSEEDHSILWDAISTYDGSKALHVTNIKKWKEPCRIELYRVVESLAKAQETSGEEISKFYLPNCNKNGFYHSRQCETSMDGEAGLCWCVYPWNGKRIPGSPEIRGDPNCQIYFNVQN
# B10: Carbonic anhydrase 3 (protein, UniProt P07451 2-260, looked up)
# Carbonic anhydrase 3: AKEWGYASHNGPDHWHELFPNAKGENQSPVELHTKDIRHDPSLQPWSVSYDGGSAKTILNNGKTCRVVFDDTYDRSMLRGGPLPGPYRLRQFHLHWGSSDDHGSEHTVDGVKYAAELHLVHWNPKYNTFKEALKQRDGIAVIGIFLKIGHENGEFQIFLDALDKIKTKGKEAPFTKFDPSCLFPACRDYWTYQGSFTTPPCEECIVWLLLKEPMTVSSDQMAKLRSLLSSAENEPPVPLVSNWRPPQPINNRVVRASFK
# Experiment: RRT study: LC-MS/MS urinary proteomics, AKI after cardiac surgery, RRT vs No RRT
# Design: species or system human
# Details: direction of differential abundance, patients who did vs did not require RRT/dialysis
row,Molecule,Up or Down
1,B1,Down
2,B2,Down
3,B3,Down
4,B4,Down
5,B5,Down
6,B6,Down
7,B7,Down
8,B8,Down

# Same assay, conditions: direction of urinary abundance, patients who did vs did not require RRT/dialysis
row,Molecule,Up or Down
1,B9,Up
2,B10,Up

# Same assay, conditions: patients who did vs did not require RRT/dialysis
row,Molecule,Mean Fold Change
1,B1,1.185
2,B2,1.159
3,B3,1.234
4,B5,2.56
5,B6,1.289
6,B7,21.6
7,B8,1.414
